# Primary screen of a compound library

By UniProt entry, the sequences of proteins in these tests, tags left out.
UniProt P9WPC5, whole entry: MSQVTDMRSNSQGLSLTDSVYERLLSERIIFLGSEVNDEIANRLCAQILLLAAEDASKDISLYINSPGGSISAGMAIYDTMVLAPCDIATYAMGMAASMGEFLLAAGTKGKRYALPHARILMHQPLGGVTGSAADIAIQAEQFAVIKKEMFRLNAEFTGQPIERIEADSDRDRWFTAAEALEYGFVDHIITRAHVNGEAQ
UniProt P9WPC3, whole entry partner: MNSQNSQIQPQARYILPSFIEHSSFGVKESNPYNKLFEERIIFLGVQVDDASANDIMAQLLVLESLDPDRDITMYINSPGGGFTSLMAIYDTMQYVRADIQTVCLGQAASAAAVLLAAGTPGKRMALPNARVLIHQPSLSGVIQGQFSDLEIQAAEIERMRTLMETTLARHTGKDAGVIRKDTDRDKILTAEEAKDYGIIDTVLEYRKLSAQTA

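ClpP1P2, Mycobacterium tuberculosis (UniProt P9WPC5 and UniProt P9WPC3). Protease assay of ClpP1P2, read by the AMC dye that it sets free. Compounds at 50 µM. Direction is inferred from only a few compounds that gave an IC50; most scored high, so higher reads as stronger inhibition. Most other retested compounds had strongly negative values. Size under these conditions: about 69,000 compounds, about 10 of them at 50% or above in at least one test.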

Values are the deposited “Percent Effect”, in %. How 0% and 100% were set is not recorded. Most values in the screen are low, and negative values occur. Compounds were drawn at random from those tested, without regard to their results.

With CN1C(=O)C(c2ccccc2)CC12CCN(CCOCCO)CC2 (stereo unspecified) the screen gave 3.018%.
With Cc1ccc(-c2ccnc(N3CCC4(CCO4)CC3)n2)c(C)n1 the screen gave -12.75%.
With COc1ccc(C(=O)CCC(=O)NCc2ncc(C)s2)cc1F the screen gave -17.73%.
With O=C(CC1CC1)NCc1cn2c(n1)CN(CC1CC1)CC2 the screen gave 9.243%.
With OCc1cc2ccccc2nc1NCC1(O)CCC1 the screen gave -10.28%.
With CN(C)c1cc(C(=O)NC2(c3cccc(F)c3)CCOCC2)ccn1 the screen gave -7.623%.
With CN(Cc1cccnc1)CC1CC12CCN(c1nncs1)CC2 (stereo unspecified) the screen gave 1.593%.
With COc1cccc(OCCNS(=O)(=O)Cc2ccccc2)c1 the screen gave 30.7%.
With COc1ccccc1-n1cc(C(=O)NCCn2nc(C)nc2C)cn1 the screen gave 3.686%.
With COc1ccc(C2SC(C)=Nc3c2c(=O)[nH]n3C2CCCCC2)cc1O (stereo unspecified) the screen gave 13.75%.
With CC(C)=CCCC1(C)CCC(=O)N(CCc2csc(N)n2)C1 (stereo unspecified) the screen gave -7.052%.
With O=C1O[C@@H]2CN(Cc3ccsc3)C[C@@H]2N1Cc1ccccn1 the screen gave -1.086%.
With CC(C)[C@@H]1CN(C(=O)NCc2ccco2)C[C@H]1NS(=O)(=O)N(C)C the screen gave 3.75%.
With Cc1cncnc1C1CCN(C(=O)C2(C)CCCCN2C)CC1 (stereo unspecified) the screen gave -6.764%.
With COCc1ccccc1NC(=O)NCc1ccc(OCC2CC2)nc1 the screen gave -9.057%.
With Cc1cc2cccc(NC(=O)N3CCC(N(C)C)C3)c2o1 (stereo unspecified) the screen gave -5.76%.
With CC(C)C(=O)NCCCNC(=O)Nc1cc(-c2ccccc2)ns1 the screen gave -14.21%.
With O=C(NCCc1ccncc1)[C@H]1CC[C@@H]2[C@@H](CCN2C2CCC2)O1 the screen gave -4.335%.
With CCN(CC)C(CNC(=O)c1ccc(-n2cncn2)cc1)c1ccsc1 (stereo unspecified) the screen gave 10.63%.
With CC(C)c1noc(CCNC(=O)N2CCN(c3cccs3)CC2)n1 the screen gave -9.012%.
With COc1ccc(OC)c(Sc2ncccc2C(=O)N(C)CCC#N)c1 the screen gave 19.08%.
With COc1ccnc(CNc2cc(C3CC3)ncn2)c1 the screen gave -3.9%.
With Cc1cccc(CN2CC3(CCN(C(=O)N(C)C)CC3)OCC2=O)n1 the screen gave -17.47%.
With COc1c(CNC(c2ccccc2F)c2nccn2C)c(C)nn1C (stereo unspecified) the screen gave -25.25%.
With CC(C)NC(=O)C1CCC2(CCN(c3ncccn3)CC2)CO1 (stereo unspecified) the screen gave -0.06593%.
With CC(C)n1ncc2c1NC(=O)CC2c1ccccc1Cl (stereo unspecified) the screen gave -9.152%.
With O=C(c1ccccc1F)N1CCN(c2ccc(-n3cccn3)nn2)CC1 the screen gave 12.98%.
With CN(C(=O)CCC(F)(F)F)c1cccc2ncccc12 the screen gave -2.985%.
With O=C(N[C@@H]1CCN(C(=O)c2cc[nH]c2)C[C@H]1O)c1ccccn1 the screen gave -0.9223%.
With Cc1nc(C2CCCN2Cc2ncc(C(C)C)o2)no1 (stereo unspecified) the screen gave -5.726%.
With CCOc1cc(C)nc(N2CCN(Cc3nccn3C)CC2)n1 the screen gave -5.059%.
With CC(NCc1cnc(C2CCC2)s1)c1cccc(-n2cccn2)c1 (stereo unspecified) the screen gave -16.39%.
With CCn1ccnc1C1CCN(Cc2cccc(C)n2)CC1 the screen gave 1.397%.
With CC(Cn1cccn1)NC(=O)NCCN1CCCCCC1=O (stereo unspecified) the screen gave 10.44%.
With NC(=O)c1cc(CC2CCCN(Cc3cnccn3)CC2)ncn1 (stereo unspecified) the screen gave -7.451%.
With CSc1nc(O)c(Cc2ccccc2)c(=O)n1-c1ccccc1 the screen gave -8.32%.
With Cc1ccc([C@@H]2CN(C(=O)c3cc(C)no3)C[C@H]2NC(=O)C2CC2)cc1 the screen gave 5.102%.
With Cn1cccc1C(=O)N1CCC2(CCCN2Cc2ccccc2)CC1 the screen gave -0.224%.
With CC1(c2ccccc2)CCCN(C(=O)c2ccn3nnnc3c2)C1 (stereo unspecified) the screen gave 1.617%.
With O=c1cc(CN2CC[C@@]3(O)CCCC[C@H]3C2)c2cccc3c2n1CCC3 the screen gave -1.584%.
With COc1c(C)cnc(CN2CCCCC2CCN2CCOCC2)c1C (stereo unspecified) the screen gave 5.475%.
With N#Cc1cc(NC(=O)c2ccsc2)ccc1N1CCC(O)CC1 the screen gave -11.36%.
With CC1(C(=O)NCc2cc(F)cc(F)c2)CCOCC1 the screen gave -10.35%.
With CN1CSC[C@H]1C(=O)N1CCN(Cc2cccc(F)c2)CC1 the screen gave -1.387%.
With O=C(CCSc1ccc(F)cc1)NS(=O)(=O)c1ccc2c(c1)OCCO2 the screen gave 0.8102%.
With O=C(NCCN1CCOCC1)NCc1ccc(-n2cccn2)cc1 the screen gave 3.132%.
With CC(CCc1ccccc1F)C(=O)NS(=O)(=O)N(C)C(C)C (stereo unspecified) the screen gave 8.352%.
With CCn1c(N)nc2cc(C(=O)N3CCN(c4nccs4)CC3)cnc21 the screen gave -3.419%.
With CCS(=O)(=O)N1CCc2ccc(NC(=O)Nc3cccc(C#N)c3)cc21 the screen gave 14.8%.
With COCCN1CCc2cc(C(=O)NC(C)C)c(NCC3CC3)nc2CC1 the screen gave -139.1%.
With CC1CN(S(=O)(=O)c2ccc(C(=O)NCC(F)F)cc2)CCCO1 (stereo unspecified) the screen gave -11.64%.

Data taken from ChEMBL document CHEMBL3988442, “University of Dundee, Small-Polar-MMV Screening Library” (2021).